Source: EP3912994A1, “COMPOUNDS BINDING TENASCIN-C (TNC) FOR USE IN THE TREATMENT OF DISEASES” (Université de Strasbourg, priority 2020, dated 2021)
Entries after “also recorded” stand apart in the source; their conditions may differ. At least one peptide structure holds a part that was inferred or is arguable (an end, a ring closure or a residue). Ends that are not written are not given here.

Amino acid sequences for entries named in this document (tags omitted). Residues count along the entry.
UniProt P24821, 23-2201: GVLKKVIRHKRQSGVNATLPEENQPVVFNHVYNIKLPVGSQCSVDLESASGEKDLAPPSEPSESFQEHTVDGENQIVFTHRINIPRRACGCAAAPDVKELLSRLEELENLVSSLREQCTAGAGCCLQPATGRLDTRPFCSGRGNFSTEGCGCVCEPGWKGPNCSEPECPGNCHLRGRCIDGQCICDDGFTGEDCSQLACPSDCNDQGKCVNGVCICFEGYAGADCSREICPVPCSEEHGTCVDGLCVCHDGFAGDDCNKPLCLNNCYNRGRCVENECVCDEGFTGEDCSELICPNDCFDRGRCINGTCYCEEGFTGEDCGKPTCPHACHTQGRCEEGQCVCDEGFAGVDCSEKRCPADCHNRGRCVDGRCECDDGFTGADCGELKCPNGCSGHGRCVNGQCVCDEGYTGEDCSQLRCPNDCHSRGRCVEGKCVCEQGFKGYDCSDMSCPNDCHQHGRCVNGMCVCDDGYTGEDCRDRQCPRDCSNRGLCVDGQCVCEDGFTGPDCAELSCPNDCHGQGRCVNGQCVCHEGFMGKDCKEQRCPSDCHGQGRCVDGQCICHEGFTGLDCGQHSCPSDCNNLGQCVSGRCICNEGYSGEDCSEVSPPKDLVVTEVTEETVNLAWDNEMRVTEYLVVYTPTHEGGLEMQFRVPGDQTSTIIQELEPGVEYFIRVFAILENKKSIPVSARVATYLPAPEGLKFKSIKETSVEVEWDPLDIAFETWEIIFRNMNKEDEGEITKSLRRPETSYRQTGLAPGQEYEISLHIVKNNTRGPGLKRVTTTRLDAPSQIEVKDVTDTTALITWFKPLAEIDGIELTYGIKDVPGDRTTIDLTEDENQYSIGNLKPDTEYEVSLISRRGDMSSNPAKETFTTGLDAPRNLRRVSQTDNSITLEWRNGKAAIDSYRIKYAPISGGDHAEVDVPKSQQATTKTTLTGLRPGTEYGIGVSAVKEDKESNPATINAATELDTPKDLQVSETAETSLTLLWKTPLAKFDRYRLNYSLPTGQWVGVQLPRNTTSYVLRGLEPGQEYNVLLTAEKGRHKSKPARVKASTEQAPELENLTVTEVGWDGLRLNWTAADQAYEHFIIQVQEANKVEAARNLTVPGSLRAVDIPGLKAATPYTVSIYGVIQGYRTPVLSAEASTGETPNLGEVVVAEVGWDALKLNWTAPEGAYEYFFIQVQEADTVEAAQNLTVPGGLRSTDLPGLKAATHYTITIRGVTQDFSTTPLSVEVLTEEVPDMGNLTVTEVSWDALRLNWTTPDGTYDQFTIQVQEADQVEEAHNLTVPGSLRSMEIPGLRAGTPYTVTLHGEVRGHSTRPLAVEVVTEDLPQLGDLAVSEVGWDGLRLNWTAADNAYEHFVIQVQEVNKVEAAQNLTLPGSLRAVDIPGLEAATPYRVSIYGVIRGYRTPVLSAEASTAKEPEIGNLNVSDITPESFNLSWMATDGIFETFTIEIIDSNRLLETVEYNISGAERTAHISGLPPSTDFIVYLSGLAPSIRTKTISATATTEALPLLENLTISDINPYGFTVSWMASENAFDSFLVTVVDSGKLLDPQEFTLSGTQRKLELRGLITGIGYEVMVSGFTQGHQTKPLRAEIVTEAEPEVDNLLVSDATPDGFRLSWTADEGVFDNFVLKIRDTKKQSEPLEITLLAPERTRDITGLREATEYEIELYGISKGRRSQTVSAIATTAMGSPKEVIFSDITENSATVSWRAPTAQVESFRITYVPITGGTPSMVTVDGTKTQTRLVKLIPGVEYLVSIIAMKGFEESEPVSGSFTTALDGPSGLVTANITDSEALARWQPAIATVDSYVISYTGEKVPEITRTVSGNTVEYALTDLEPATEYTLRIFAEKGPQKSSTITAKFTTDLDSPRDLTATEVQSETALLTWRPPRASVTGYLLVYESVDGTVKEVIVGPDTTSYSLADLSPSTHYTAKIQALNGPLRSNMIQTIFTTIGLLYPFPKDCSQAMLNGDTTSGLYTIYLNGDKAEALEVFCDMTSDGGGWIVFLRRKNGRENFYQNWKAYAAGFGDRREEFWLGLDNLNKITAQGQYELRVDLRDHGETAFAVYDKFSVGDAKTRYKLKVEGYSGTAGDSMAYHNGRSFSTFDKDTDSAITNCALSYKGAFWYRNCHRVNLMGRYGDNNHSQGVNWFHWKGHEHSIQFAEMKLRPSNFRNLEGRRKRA

Key:
KRIB cells = experiment: Immunofluorescence staining (phalloidin) for actin stress fibres on FN/TNC; format: cell-based, human; settings: 3h after plating
mesangial cells (MES) [1] = experiment: Immunoblotting of mesangial cells treated with TNC and peptides; format: cell-based, Human; settings: TNC 10 µg/ml, peptide 50 µg/mL, 4 hours
NT193M cells [2] = experiment: Cell adhesion assay on FN/TNC substratum; format: cell-based, murine; settings: peptides 25 µM added to TNC 1.25 nM before coating, serum-free
mesangial cells (MES) [3] = experiment: FN and Col matrix assembly by immunofluorescence on mesangial cells; format: cell-based, Human; settings: 4 hours, no permeabilization
DC2.4 cells [4] = experiment: Gene expression analysis by qRTPCR in DC2.4 cells stimulated with TNC; format: cell-based, murine; settings: TNC-induced mRNA, peptides 50 µg/mL, 24 hours
FN4-6 binding to FN12-14 = experiment: Negative EM imaging of FN4-6 binding to FN12-14 in presence of peptides; set-up: species or system human
TNC (TN5) = biological target: T1, TNC (TN5) (Homo sapiens, UniProt P24821); experiment: Negative EM imaging of FN4-6 and FN12-14 binding to TNC in presence of peptides; settings: non-labeled peptides
T1 construct: gold labeled peptides P5 and P13 (and control peptide S5 and S13) to full length TNC; His-tag (if human TNC) or Strep-tag (if murine TNC); made in house

TNC [5] = experiment: Negative EM imaging, peptide competition of soluble factor binding to TNC; settings: for binding of CCL21 to TNC: peptides 10 molar excess preincubated with gold labeled CCL21; for binding of CXCL12 to TNC: peptides 10 molar excess preincubated with gold labeled CXCL12; for binding of TRAIL to TNC: peptides 10 molar excess preincubated with gold labeled TRAIL
NT193M cells [6] = experiment: Immunofluorescence staining (anti-vinculin) for focal adhesions on FN/TNC; format: cell-based, murine; settings: 3h after plating
NT193M cells [7] = experiment: TRAIL killing activity: Caspase-Glo 3/7 assay; format: cell-based, murine; settings: with TRAIL and MD5-1, 16 hours
TNC [8] = biological target: T2, TNC (Homo sapiens, UniProt P24821); experiment: Negative EM imaging of gold labeled peptides binding to TNC, with or without heparin; settings: 10 molar excess of heparin
T2 construct: gold labeled peptides P5 and P13 (and control peptide S5 and S13) to full length TNC; His-tag (if human TNC) or Strep-tag (if murine TNC); made in house

NT193M cells [9] = experiment: TRAIL killing activity: cell death by acridine orange / ethidium bromide incorporation; format: cell-based, murine; settings: peptide with TRAIL and MD5-1, 16 hours
[10] = tested on: NT193M cells with a TNC knockdown; experiment: TRAIL killing activity in cells with a TNC knockdown; format: cell-based, murine; settings: with TRAIL and MD5-1
DC2.4 cells [11] = experiment: Chemoretention assay (transwell) of DC2.4 cells on TNC; format: cell-based, murine; settings: peptides 50 µg/mL on coating, 5 hours of migration

Sequence: STETTSAPASGLQPGTDYS [P13]
- actin stress fibres on FN/TNC (KRIB cells): induced
- activation of SMAD2 signalling by TNC (SMAD2 phosphorylation) (mesangial cells (MES) [1]): inhibit the activation of SMAD2 signalling by TNC
- expression of Col I (mesangial cells (MES) [1]): decreased
- expression of FN (mesangial cells (MES) [1]): decreased
- cell spreading on the FN/TNC substratum (NT193M cells [2]): a large majority of cells spread
- TNC-induced matrix assembly (FN and Col) (mesangial cells (MES) [3]): abrogated
- expression of Ccr7 (DC2.4 cells [4]): downregulated
- expression of Cd86 (DC2.4 cells [4]): downregulated
- FN4-6 binding to FN12-14 (FN4-6 binding to FN12-14): blocked this interaction
- FN4-6 and FN12-14 binding to TN5 (TNC (TN5)): inhibited
- binding of CCL21 to TNC (TNC [5]): blocked binding
- binding of CXCL12 to TNC (TNC [5]): blocked binding
- binding of TRAIL to TNC (TNC [5]): blocked binding
- focal adhesions on FN/TNC (NT193M cells [6]): induced
- caspases 3 and 7 activation (NT193M cells [7]): largely increased; also recorded: significantly increased
- binding to TNC in presence of heparin (TNC [8]): not competed by heparin
- cell death (NT193M cells [9]): ~15 % of cells
- cell death in cells with a TNC Knock Down [10]: did not induce cell death
- immobilization of DC2.4 cells on TNC in context of CCL21 (DC2.4 cells [11]): induce a release of cells from the TNC substratum
- immobilization of DC2.4 cells on TNC in context of CXCL12 (DC2.4 cells [11]): induce a release of cells from the TNC substratum

Sequence: STTDSSAPASYESAPGLNS [S5, reference compound]
- cell spreading on the FN/TNC substratum (NT193M cells [2]): not obtained
- FN4-6 binding to FN12-14 (FN4-6 binding to FN12-14): yet not
- FN4-6 and FN12-14 binding to TN5 (TNC (TN5)): yet not
- binding of CCL21 to TNC (TNC [5]): did not block binding
- binding of CXCL12 to TNC (TNC [5]): did not block binding
- binding of TRAIL to TNC (TNC [5]): did not block binding
- caspases 3 and 7 activation (NT193M cells [7]): but not
- cell death (NT193M cells [9]): but not

Sequence: STTETSAPASYDTGPQLGS [S13, reference compound]
- cell spreading on the FN/TNC substratum (NT193M cells [2]): not obtained
- FN4-6 binding to FN12-14 (FN4-6 binding to FN12-14): yet not
- FN4-6 and FN12-14 binding to TN5 (TNC (TN5)): yet not
- binding of CCL21 to TNC (TNC [5]): did not block binding
- binding of CXCL12 to TNC (TNC [5]): did not block binding
- binding of TRAIL to TNC (TNC [5]): did not block binding
- caspases 3 and 7 activation (NT193M cells [7]): but not
- cell death (NT193M cells [9]): but not

Sequence: STDSTSAPASNLQPASEYS [P5]
- actin stress fibres on FN/TNC (KRIB cells): induced
- activation of SMAD2 signalling by TNC (SMAD2 phosphorylation) (mesangial cells (MES) [1]): inhibit the activation of SMAD2 signalling by TNC
- cell spreading on the FN/TNC substratum (NT193M cells [2]): a large majority of cells spread
- expression of Ccr7 (DC2.4 cells [4]): downregulated
- expression of Cd86 (DC2.4 cells [4]): downregulated
- FN4-6 binding to FN12-14 (FN4-6 binding to FN12-14): blocked this interaction
- FN4-6 and FN12-14 binding to TN5 (TNC (TN5)): inhibited
- binding of CCL21 to TNC (TNC [5]): blocked binding
- binding of CXCL12 to TNC (TNC [5]): blocked binding
- binding of TRAIL to TNC (TNC [5]): blocked binding
- focal adhesions on FN/TNC (NT193M cells [6]): induced
- caspases 3 and 7 activation (NT193M cells [7]): largely increased; also recorded: significantly increased
- binding to TNC in presence of heparin (TNC [8]): not competed by heparin
- cell death (NT193M cells [9]): ~15 % of cells
- cell death in cells with a TNC Knock Down [10]: did not induce cell death
- immobilization of DC2.4 cells on TNC in context of CCL21 (DC2.4 cells [11]): induce a release of cells from the TNC substratum
- immobilization of DC2.4 cells on TNC in context of CXCL12 (DC2.4 cells [11]): induce a release of cells from the TNC substratum
